Here are results for two substances from paper PMC4832331.

Amino acid sequences for entries named in this document (tags omitted). A change or cut given only in a name is not applied to a line headed by its entry. Residues count along the entry.
UniProt P52095, residues 1-710: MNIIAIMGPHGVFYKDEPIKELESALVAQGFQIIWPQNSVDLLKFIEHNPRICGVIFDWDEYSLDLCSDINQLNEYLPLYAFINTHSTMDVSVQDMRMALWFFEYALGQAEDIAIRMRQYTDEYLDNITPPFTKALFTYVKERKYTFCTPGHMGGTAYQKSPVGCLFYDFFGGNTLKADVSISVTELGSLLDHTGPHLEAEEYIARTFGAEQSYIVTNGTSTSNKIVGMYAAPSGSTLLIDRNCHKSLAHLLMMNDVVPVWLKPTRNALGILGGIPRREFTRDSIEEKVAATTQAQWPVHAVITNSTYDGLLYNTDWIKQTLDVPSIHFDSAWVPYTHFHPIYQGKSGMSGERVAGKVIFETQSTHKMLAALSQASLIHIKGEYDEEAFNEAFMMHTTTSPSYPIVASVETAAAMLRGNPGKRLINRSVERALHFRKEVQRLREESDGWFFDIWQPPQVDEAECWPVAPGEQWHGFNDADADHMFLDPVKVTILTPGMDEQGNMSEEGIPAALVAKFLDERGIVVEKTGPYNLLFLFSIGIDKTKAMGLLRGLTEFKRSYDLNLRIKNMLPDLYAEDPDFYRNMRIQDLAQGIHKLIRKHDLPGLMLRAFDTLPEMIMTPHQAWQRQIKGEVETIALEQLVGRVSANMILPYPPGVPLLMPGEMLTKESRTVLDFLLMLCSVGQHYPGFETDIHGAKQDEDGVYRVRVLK
UniProt P0A9H3: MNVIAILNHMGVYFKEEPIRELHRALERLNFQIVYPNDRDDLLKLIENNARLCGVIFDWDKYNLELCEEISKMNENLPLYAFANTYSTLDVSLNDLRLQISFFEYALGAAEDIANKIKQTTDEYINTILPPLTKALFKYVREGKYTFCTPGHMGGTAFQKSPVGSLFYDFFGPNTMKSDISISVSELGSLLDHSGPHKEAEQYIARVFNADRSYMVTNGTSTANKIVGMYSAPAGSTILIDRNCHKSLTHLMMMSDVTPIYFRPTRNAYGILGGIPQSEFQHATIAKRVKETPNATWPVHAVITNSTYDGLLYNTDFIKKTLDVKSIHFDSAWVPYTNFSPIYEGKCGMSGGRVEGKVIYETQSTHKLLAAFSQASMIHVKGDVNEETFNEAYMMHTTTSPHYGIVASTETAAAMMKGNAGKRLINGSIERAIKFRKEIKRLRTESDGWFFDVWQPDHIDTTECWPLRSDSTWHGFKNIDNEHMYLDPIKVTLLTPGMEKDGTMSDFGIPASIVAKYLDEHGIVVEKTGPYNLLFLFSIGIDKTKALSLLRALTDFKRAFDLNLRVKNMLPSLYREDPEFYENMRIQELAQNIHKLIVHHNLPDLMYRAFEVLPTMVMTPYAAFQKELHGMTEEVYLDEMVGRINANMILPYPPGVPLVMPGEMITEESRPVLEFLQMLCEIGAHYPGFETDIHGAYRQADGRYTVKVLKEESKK
UniProt P31473: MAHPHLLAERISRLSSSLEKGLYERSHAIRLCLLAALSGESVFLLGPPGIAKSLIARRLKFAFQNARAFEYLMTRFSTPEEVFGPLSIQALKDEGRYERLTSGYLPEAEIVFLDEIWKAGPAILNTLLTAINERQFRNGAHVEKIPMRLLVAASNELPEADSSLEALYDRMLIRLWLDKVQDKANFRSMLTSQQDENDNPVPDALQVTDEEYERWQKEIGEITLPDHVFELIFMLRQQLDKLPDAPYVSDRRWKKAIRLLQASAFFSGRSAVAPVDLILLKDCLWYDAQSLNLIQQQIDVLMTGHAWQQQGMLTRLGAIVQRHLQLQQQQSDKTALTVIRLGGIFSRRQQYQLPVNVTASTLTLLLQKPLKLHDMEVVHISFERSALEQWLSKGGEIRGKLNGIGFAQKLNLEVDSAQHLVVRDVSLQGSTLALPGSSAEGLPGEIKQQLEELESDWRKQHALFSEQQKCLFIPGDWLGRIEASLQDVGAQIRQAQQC

These are yes or no findings as the source states them, for the method shown. Some binding calls cover weakened binding; strength is not graded here.

Experiment [1] concerns the target Escherichia coli biosynthetic lysine decarboxylase LdcC (E. coli) (UniProt P52095). Briefly: negative stain EM; 0.4 mg/ml RavA mixed with 0.3 mg/ml LdcI, LdcC, LdcCI or LdcIC; 2 mM ADP, 10 mM MgCl2, 20 mM Hepes, 150 mM NaCl, pH 7.4; 10 min at room temperature; 2% uranyl acetate; both purified.
The target of experiment [2] is LdcIC chimera (LdcI with the C-terminal β-sheet of LdcC) (E. coli) (UniProt P0A9H3+P52095). The description is as above.
Experiment [3] deals with Escherichia coli inducible lysine decarboxylase LdcI (E. coli) (UniProt P0A9H3). The experiment is described as follows: cryo-EM structure; LdcI decamer with the LARA domain bound; acidic pH optimal for the enzymatic activity; data set of ref. 23 reprocessed in RELION; both purified.

Take “Escherichia coli AAA+ ATPase RavA (from UniProt P31473 1-498) (enzyme)”: the binding result is on record as “no binding (tested: 0.4 mg/ml RavA, 0.3 mg/ml LdcC)” in experiment [1] and “no binding (tested: 0.4 mg/ml RavA, 0.3 mg/ml LdcIC)” in experiment [2]. For the substance “LARA domain of RavA (LdcI associating domain of RavA) (from UniProt P31473 332-437) (domain or fragment)”, in experiment [3], the binding entry is on record as “binds”.
